Laboratory results as given in patent US20140271634A1, “COMBINATIONS OF A MEK INHIBITOR COMPOUND WITH AN HER3/EGFR INHIBITOR COMPOUND AND METHODS OF USE” (The Regents of the University of California, priority 2013, published 2014).
No constants are given. Whether binding was seen depends on the method and setting. Some binding calls cover weakened binding; strength is not graded here.

By UniProt entry, the sequences of proteins in these tests, tags left out. Residues count along the entry.
UniProt P21860, residues 20-643: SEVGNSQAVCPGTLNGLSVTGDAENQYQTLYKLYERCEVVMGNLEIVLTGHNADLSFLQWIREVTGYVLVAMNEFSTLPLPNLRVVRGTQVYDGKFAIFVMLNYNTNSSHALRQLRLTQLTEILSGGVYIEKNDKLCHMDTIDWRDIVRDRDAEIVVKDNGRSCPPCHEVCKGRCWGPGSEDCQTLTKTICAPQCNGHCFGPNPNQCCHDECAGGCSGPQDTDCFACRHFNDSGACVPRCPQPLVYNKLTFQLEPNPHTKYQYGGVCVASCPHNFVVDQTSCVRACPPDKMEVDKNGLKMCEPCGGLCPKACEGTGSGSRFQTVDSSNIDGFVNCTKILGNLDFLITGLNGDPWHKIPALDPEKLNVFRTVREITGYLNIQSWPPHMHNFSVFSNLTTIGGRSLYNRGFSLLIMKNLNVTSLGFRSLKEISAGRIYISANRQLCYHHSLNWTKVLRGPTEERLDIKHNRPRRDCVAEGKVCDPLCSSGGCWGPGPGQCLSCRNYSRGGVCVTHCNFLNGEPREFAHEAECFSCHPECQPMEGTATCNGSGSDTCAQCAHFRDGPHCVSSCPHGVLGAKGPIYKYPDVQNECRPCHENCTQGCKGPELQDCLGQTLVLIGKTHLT

Legend:
[1] = biological target: EGFR-ECD (UniProt P00533); experiment: competitive binding assay, figure legend of FIG. 1
[2] = biological target: T1, HER3-ECD (Homo sapiens, UniProt P21860); experiment: competitive binding assay, figure legend of FIG. 1
[3] = biological target: EGFR-ECD (UniProt P00533); experiment: competitive binding assay; soluble EGFR-ECD as competitor (0.02-20 µg/ml) against immobilized HER3-ECD
[4] = biological target: T1, HER3-ECD; experiment: competitive binding assay; soluble HER3-ECD as competitor (0.02-20 µg/ml) against immobilized EGFR-ECD

Measured: binding

B1: MEHD7945A (bispecific antibody, V domains shown)
VH: EVQLVESGGGLVQPGGSLRLSCAASGFTLSGDWIHWVRQAPGKGLEWVGEISAAGGYTDYADSVKGRFTISADTSKNTAYLQMNSLRAEDTAVYYCARESRVSFEAAMDYWGQGTLVTVSS
VL: DIQMTQSPSSLSASVGDRVTITCRASQNIATDVAWYQQKPGKAPKLLIYSASFLYSGVPSRFSGSGSGTDFTLTISSLQPEDFATYYCQQSEPEPYTFGQGTKVEIKR
binds: all assays above
